The source of these data is paper PMC7144943.

Protein sequences, listed by entry. Tags and fused reporters are not part of them.
UniProt A1ZAW0: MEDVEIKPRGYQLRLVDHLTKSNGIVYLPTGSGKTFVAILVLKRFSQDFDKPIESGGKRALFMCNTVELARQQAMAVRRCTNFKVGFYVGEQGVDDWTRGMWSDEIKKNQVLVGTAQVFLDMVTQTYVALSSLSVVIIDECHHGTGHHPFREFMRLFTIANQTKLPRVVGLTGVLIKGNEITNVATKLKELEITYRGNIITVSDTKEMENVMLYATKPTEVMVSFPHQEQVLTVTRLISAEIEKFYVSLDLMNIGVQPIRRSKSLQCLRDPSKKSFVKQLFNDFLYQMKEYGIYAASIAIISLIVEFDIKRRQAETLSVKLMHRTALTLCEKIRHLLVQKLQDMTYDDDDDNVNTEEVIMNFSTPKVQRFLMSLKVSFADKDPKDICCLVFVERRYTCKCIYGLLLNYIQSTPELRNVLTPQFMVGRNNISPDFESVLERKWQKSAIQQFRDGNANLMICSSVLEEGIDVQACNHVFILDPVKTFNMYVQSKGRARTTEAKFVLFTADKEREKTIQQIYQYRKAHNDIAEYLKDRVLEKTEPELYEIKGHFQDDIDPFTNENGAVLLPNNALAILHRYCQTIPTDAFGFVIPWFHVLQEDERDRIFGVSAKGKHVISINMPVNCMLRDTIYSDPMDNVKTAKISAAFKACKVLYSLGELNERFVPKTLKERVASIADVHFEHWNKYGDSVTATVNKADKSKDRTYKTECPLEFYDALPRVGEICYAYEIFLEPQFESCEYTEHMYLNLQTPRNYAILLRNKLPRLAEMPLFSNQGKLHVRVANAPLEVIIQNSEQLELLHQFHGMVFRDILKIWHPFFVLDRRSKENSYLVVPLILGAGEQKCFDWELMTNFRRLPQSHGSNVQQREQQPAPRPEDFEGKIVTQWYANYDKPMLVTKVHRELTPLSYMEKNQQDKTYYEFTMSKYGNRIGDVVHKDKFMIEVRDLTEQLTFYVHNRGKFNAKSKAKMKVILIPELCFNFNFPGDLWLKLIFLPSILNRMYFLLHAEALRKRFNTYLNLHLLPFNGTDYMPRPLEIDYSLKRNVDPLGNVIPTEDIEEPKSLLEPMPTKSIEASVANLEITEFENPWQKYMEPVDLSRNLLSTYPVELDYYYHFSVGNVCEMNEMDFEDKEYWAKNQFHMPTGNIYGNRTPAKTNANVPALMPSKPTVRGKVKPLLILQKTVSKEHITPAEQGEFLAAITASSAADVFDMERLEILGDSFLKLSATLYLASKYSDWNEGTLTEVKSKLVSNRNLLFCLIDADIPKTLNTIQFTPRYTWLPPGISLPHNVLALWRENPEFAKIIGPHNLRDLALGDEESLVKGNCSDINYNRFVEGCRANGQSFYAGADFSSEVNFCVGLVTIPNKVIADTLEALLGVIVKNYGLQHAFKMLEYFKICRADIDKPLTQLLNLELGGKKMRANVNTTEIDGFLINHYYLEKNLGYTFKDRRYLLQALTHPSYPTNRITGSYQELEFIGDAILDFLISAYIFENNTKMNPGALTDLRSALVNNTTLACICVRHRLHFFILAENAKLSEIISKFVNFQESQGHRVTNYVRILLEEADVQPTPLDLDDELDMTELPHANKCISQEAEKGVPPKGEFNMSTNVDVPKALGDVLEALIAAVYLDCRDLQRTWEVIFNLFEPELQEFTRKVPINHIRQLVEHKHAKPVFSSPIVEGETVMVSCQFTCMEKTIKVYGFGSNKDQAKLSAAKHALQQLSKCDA

Results are given in words; binding and its absence hold for the method and conditions named. In cells and extracts the contact can be indirect. Some binding calls cover weakened binding; strength is not graded here. Tags and fused reporters may be left off the sequences shown.

The target of this assay is T1, R2D2-Flag (knock-in) (Drosophila (endogenous locus in S2 cells)) (UniProt Q9VLW8).
T1 sequence: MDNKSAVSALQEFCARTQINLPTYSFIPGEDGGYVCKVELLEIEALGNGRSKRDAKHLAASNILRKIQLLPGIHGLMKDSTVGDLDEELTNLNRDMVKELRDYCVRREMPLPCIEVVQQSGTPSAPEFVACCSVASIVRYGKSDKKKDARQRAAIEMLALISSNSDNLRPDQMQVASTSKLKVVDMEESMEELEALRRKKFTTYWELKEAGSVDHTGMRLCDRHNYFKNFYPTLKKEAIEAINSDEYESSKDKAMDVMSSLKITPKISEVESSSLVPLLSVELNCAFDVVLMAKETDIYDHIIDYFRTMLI
As to the kind of experiment: co-IP; whole cell lysates of knock-in S2 cells; Flag-tagged protein immunoprecipitated with anti-FLAG M2 on Protein G Dynabeads; lysis in 150 mM KAc pH 7.4, 30 mM HEPES pH 7.4, 5 mM MgAc, 1 mM DTT, 15% glycerol, 1% tergitol; Dcr-2 detected by Western blot (anti-Dcr-2 or anti-Strep tag).

Consider “Dcr-2-Strep-tag (knock-in) (from UniProt A1ZAW0 1-1722) (enzyme)”, for which the binding result is on record as “binds”.
